# In PMC4879639:
# Amino acid sequences for entries named in this document (tags omitted). Residues count along the entry.
# UniProt Q6PHU5, residues 74-754: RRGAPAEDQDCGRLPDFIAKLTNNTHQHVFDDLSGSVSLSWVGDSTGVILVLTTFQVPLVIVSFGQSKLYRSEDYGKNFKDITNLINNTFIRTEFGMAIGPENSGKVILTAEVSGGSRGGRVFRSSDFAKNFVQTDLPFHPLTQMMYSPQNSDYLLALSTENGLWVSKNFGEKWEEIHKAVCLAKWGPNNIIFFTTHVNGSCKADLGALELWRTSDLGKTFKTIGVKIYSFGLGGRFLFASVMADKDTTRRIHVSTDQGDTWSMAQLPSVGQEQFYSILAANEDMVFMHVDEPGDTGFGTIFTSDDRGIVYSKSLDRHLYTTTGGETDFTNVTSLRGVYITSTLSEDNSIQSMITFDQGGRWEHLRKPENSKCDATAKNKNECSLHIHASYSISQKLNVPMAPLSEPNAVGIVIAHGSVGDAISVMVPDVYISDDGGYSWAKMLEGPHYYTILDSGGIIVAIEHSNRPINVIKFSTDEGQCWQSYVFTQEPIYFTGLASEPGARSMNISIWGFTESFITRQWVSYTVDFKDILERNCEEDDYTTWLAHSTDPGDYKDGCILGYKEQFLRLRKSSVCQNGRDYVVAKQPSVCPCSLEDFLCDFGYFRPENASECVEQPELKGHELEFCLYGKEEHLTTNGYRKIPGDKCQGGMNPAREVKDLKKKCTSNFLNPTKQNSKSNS
# These are yes or no findings as the source states them, for the method shown. Some binding calls cover weakened binding; strength is not graded here. Sequences can lack the tags named with a protein.
# Target: recombinant mouse sortilin (mouse) (UniProt Q6PHU5)
# Assay: SPR; recombinant sortilin immobilised; cytokines flowed at various concentrations; Biacore X; curves after subtraction of binding to a BSA-coated flow cell; kinetic parameters by BIAevaluation software; both purified
row,Binder,binding
1,"recombinant IFN-γ (ligand, UniProt P01580 23-155) HGTVIESLESLNNYFNSSGIDVEEKSLFLDIWRNWQKDGDMKILQSQIISFYLRLFEVLKDNQAISNNISVIESHLITTFFSNSKAKKDAFMSIAKFEVNNPQVQRQAFNELIRVVHQLLPESSLRKRKRSRC",binds
2,"recombinant IL-6 (ligand, UniProt P08505 25-211) FPTSQVRRGDFTEDTTPNRPVYTTSQVGGLITHVLWEIVEMRKELCNGNSDCMNNDDALAENNLKLPEIQRNDGCYQTGYNQEICLLKISSGLLEYHSYLEYMKNNLKDNKKDKARVLQRDTETLIHIFNQEVKDLHKIVLPTPISNALLTDKLESQKEWLRTKTIQFILKSLEEFLKVTLRSTRQT",binds
3,"GST-fused mouse IFN-α (ligand, UniProt P01573 24-190) CDLPHTYNLRNKRALKVLAQMRRLPFLSCLKDRQDFGFPLEKVDNQQIQKAQAIPVLRDLTQQTLNLFTSKASSAAWNATLLDSFCNDLHQQLNDLQTCLMQQVGVQEPPLTQEDALLAVRKYFHRITVYLREKKHSPCAWEVVRAEVWRALSSSVNLLPRLSEEKE",binds
4,"recombinant IL-10 (ligand, UniProt P18893 19-178) SRGQYSREDNNCTHFPVGQSHMLLELRTAFSQVKTFFQTKDQLDNILLTDSLMQDFKGYLGCQALSEMIQFYLVEVMPQAEKHGPEIKEHLNSLGEKLKTLRMRLRRCHRFLPCENKSKAVEQVKSDFNKLQDQGVYKAMNEFDIFINCIEAYMMIKMKS",binds
5,"recombinant IL-12 (complex, UniProt P43431 23-215; P43432 23-335) chain 1: RVIPVSGPARCLSQSRNLLKTTDDMVKTAREKLKHYSCTAEDIDHEDITRDQTSTLKTCLPLELHKNESCLATRETSSTTRGSCLPPQKTSLMMTLCLGSIYEDLKMYQTEFQAINAALQNHNHQQIILDKGMLVAIDELMQSLNHNGETLRQKPPVGEADPYRVKMKLCILLHAFSTRVVTINRVMGYLSSA chain 2: MWELEKDVYVVEVDWTPDAPGETVNLTCDTPEEDDITWTSDQRHGVIGSGKTLTITVKEFLDAGQYTCHKGGETLSHSHLLLHKKENGIWSTEILKNFKNKTFLKCEAPNYSGRFTCSWLVQRNMDLKFNIKSSSSSPDSRAVTCGMASLSAEKVTLDQRDYEKYSVSCQEDVTCPTAEETLPIELALEARQQNKYENYSTSFFIRDIIKPDPPKNLQMKPLKNSQVEVSWEYPDSWSTPHSYFSLKFFVRIQRKKEKMKETEEGCNQKGAFLVEKTSTEVQCKGGNVCVQAQDRYYNSSCSKWACVPCRVRS",binds
6,"recombinant IL-17A (ligand, UniProt Q62386 26-158) AAIIPQSSACPNTEAKDFLQNVKVNLKVFNSLGAKVSSRRPSDYLNRSTSPWTLHRNEDPDRYPSVIWEAQCRHQRCVNAEGKLDHHMNSVLIQQEILVLKREPESCPFTFRVEKMLVGVGCTCVASIVRQAA",binds
7,"recombinant IL-1β (ligand, UniProt P10749 118-269) VPIRQLHYRLRDEQQKSLVLSDPYELKALHLNGQNINQQVIFSMSFVQGEPSNDKIPVALGLKGKNLYLSCVMKDGTPTLQLESVDPKQYPKKKMEKRFVFNKIEVKSKVEFESAEFPNWYISTSQAEHKPVFLGNNSGQDIIDFTMESVSS",no binding
